In PubChem BioAssay AID1487 (National Center for Advancing Translational Sciences (NCATS), 2009):
The campaign covered roughly 200,000 compounds. About 25 (0.01%) were called active. This list was built around the results that the source calls inconclusive (neither active nor inactive); the mix of calls is not that of the screen. Calls come from the whole dose curve; as a rule, active = well fitted inhibition curve with a large enough effect in the signal ratio, with a control signal flat (not every such curve was filed as active); inconclusive = small, poorly fitted or top-dose-only effect, or effect the other way, or a change in a side signal; inactive = flat fitted curve, though single readings scatter; the % refers to the signal ratio. Potencies of inconclusive entries are doubtful fits and often do not repeat.

Assay: qHTS Assay for Modulators of Lamin A Splicing
Settings: HeLa LMNA splicing GFP/RFP minigene ratio, 48 h; ratio change, negative = inhibition: at 46.1 µM (top of the series) unless noted
Method in brief: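 S3 HeLa stable clones carrying a lamin A-EGFP splicing minigene plus DsRed2 were seeded at 600 cells/well in Opti-MEM with 2% FBS, pin-dosed and incubated 48 h at 37°C. Acumen cytometry (488 nm) gave the GFP/RFP total-intensity ratio.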
% is set by controls: 0 for no effect and ±100 for the full control effect; potency is the fitted concentration of half-maximal effect.

Structure (SMILES)	ratio change, negative = inhibition	Potency
Cc1ccc(Cl)cc1NC(=O)Nc1cccc(OCc2cc(=O)n3ccccc3n2)c1	inconclusive: 3.5% [at 46 µM]	–
O=C(O)CN(CCN(CC(=O)O)CC(=O)O)CC(=O)O	inconclusive: 5.14%	–
O=C(NCC(c1ccco1)S(=O)(=O)c1cccs1)c1ccc(F)c(F)c1 (stereo not given)	inconclusive: 11.6% [at 46 µM]	–
CS/C(=C\[N+](=O)[O-])Nc1ccc(F)cc1	inconclusive: 17.9%	–
CC1(C)CC(=O)C2=C(C1)NC1=C(C(=O)c3ccccc31)C2c1ccc(Cl)cc1 (stereo not given)	inconclusive: -52.2%	–
CCN1C(=O)/C(=C\c2nc3ccccc3c(=O)n2CC)c2ccccc21	–	inconclusive: 5.62 µM [inhibitor, partial curve, poor fit]
Cc1cc(C)cc(N2C(=O)CSC2c2ccccn2)c1 (stereo not given)	inactive	–
Cc1nnc(C)n1/N=C/c1cc2ccccc2nc1Cl	inconclusive: -23.4% [at 46 µM]	–
N#C/C(=C(/O)COC(=O)CCc1ccc(S(=O)(=O)N2CCOCC2)cc1)c1nc2ccccc2[nH]1	inconclusive: 6.78%	–
CCOC(=O)c1nn(-c2ccc(Br)cc2)cc1C(=O)c1cccc2ccccc12	–	inconclusive: 6.31 µM [inhibitor, partial curve]
Cc1nc(N2CCCCC2)sc1C(=O)c1cccc([N+](=O)[O-])c1	inconclusive: 37.9% [at 46 µM]	–
COC(=O)C1CCN(S(=O)(=O)c2ccc(N3CCCCS3(=O)=O)cc2)CC1	inactive	–
COC(=O)c1cc(C)nc2c1c(=O)nc(SCc1ccccc1C)n2C1CC1	inactive	–
Cc1cc(Cl)c(OCCOCCN2CCCCC2)c(Br)c1	inactive	–
C=CCNC(=O)c1onc(CSc2ccccc2CC)c1C(=O)O	–	inconclusive: 15.8 µM [inhibitor, single point]
CC(C)c1onc(C(=O)Nc2sc3c(c2C#N)CCC3)c1[N+](=O)[O-]	inconclusive: -19.1% [at 46 µM]	–
COc1ccc(NC2c3ccccc3C(=O)N2Cc2ccco2)cc1OC (stereo not given)	inactive	–
CCc1cnc2c(c1SCC(=O)NCc1ccc(F)cc1)c(=O)n(C)c(=O)n2C	inactive	–
CCCn1c(=O)c(C(=O)NNS(=O)(=O)c2ccc(Cl)cc2)c(O)c2ccccc21	inconclusive: -47.8%	–
O=C(Nc1cccc(Cl)c1)N(CCCN1CCOCC1)Cc1ccccc1F	inactive	–
Cc1ccc(Cn2nnc3c(=O)[nH]c(C4CCN(S(=O)(=O)c5ccc(C)cc5)CC4)nc32)cc1	inconclusive: 9.97%	–

Structure (SMILES)	ratio change, negative = inhibition	Potency
COc1ncc2nc(-c3cn(C)c4ccccc34)c(=O)n(CCc3ccccc3)c2n1	inactive	–
CCCOc1ccc(C(=O)N2CCCC2C(=O)O)cc1 (stereo not given)	inactive	–
CCCCCCCCNC(=O)c1ccc(C)cc1	inconclusive: -4.58% [at 46 µM]	–
C=CCOc1ccc(/C=N\NC(N)=S)cc1	inconclusive: -46.3% [at 46 µM]	–
Cc1ccc(NC(=S)Nc2ccc(Cl)c(Cl)c2)c(OC(F)F)c1	–	inconclusive: 20 µM [falling, partial curve, poor fit]
COc1cc(Nc2nc(SCc3ccc(Cl)cc3)nc3ccccc23)cc(OC)c1	inconclusive: -15.7% [at 46 µM]	–
O=c1c2ccccc2[nH]c(=S)n1CCCN1CCOCC1	inactive	–
COc1cccc(N/C(SCc2ccccc2F)=C(/C#N)C(=O)NCc2cccs2)c1	inconclusive: -11.1%	–
Cc1nn(C)c(C(=O)Nc2ccc(Cl)c([N+](=O)[O-])c2)c1Cl	inconclusive: 6.35%	–
CC1(C)C2CCC1(C)C(OCC[N+](C)(C)CC(=O)OC1CCCCC1)C2 (stereo not given)	–	inconclusive: 35.5 µM [falling, single point]
O=C(Nc1ccccc1C(=O)OCc1cc(=O)n2c3c(sc2n1)CCCC3)c1ccc(F)cc1	inactive	–
COc1ccccc1-n1c(C)cc(C=O)c1C	inactive	–
COc1cc(OC)cc(C(=O)Nc2nc(-c3ccccc3)c(-c3ccccc3)o2)c1	inconclusive: -31.6%	–
O=C(CCC(=O)Nc1ccc(F)cc1)N/N=C/c1ccccc1O	inconclusive: -31.9% [at 46 µM]	–
COc1ccccc1CNC(=O)Cn1c(=O)nc(-c2ccccc2F)c2cc(Cl)ccc21	inconclusive: -26.9% [at 46 µM]	–
CCSC1(SCC)N=C(N)C2(C#N)C(c3ccccc3)NC(C)=CC12C#N (stereo not given)	inconclusive: -6.43%	–
CSc1nc2nccc(/C=C\c3ccccc3)n2n1	–	inconclusive: 35.5 µM [cytotoxic, single point]
CC(=O)N1CCc2cc(S(=O)(=O)NCCC(=O)N3CCc4ccccc4C3)ccc21	–	inconclusive: 22.4 µM [fluorescent, single point]
CC1(C)CC(=O)CC(=O)/C1=N\Nc1c(Cl)cc(Cl)cc1Cl	inactive	–
CCOc1ccc(N2C(=O)CNC2=S)cc1	inconclusive: 27.2% [at 46 µM]	–
C=CCc1cccc2cc(-c3nc4ccc(C)cc4[nH]3)c(=O)oc12	inactive	–

Exported with bars between the fields: five of the compounds above.
Structure (SMILES) | ratio change, negative = inhibition | Potency
Cc1nn(C)c(C(=O)Nc2ccc(Cl)c([N+](=O)[O-])c2)c1Cl | inconclusive: 6.35% | –
CC1(C)C2CCC1(C)C(OCC[N+](C)(C)CC(=O)OC1CCCCC1)C2 (stereo not given) | – | inconclusive: 35.5 µM [falling, single point]
O=C(Nc1ccccc1C(=O)OCc1cc(=O)n2c3c(sc2n1)CCCC3)c1ccc(F)cc1 | inactive | –
COc1ccccc1-n1c(C)cc(C=O)c1C | inactive | –
COc1cc(OC)cc(C(=O)Nc2nc(-c3ccccc3)c(-c3ccccc3)o2)c1 | inconclusive: -31.6% | –

(continued)

Structure (SMILES)	ratio change, negative = inhibition	Potency
Cc1c(C(=O)Nc2cccc(C(F)(F)F)c2)sc2nc[nH]c(=O)c12	inconclusive: -15.7% [at 46 µM]	–
C[C@H](C(=O)O)c1cccc(Oc2ccccc2)c1	inconclusive: -5.37%	–
CC(=O)c1cn(CC(=O)Nc2cccc(C)c2C)c2ccccc12	inconclusive: 21.4% [at 46 µM]	–
COc1cc(C2c3c(oc4ccccc4c3=O)C(=O)N2Cc2ccncc2)ccc1O (stereo not given)	inactive	–
CCOC(=O)C1=C(O)/C(=C\c2sccc2C)N=C1C	inconclusive: -10.2%	–
O=C(CN1CCCCC1)Nc1ccccc1-c1ccccc1	inactive	–
C(=N\NC1=Nc2cccc3cccc1c23)/c1ccccn1	inconclusive: -56.8% [at 46 µM]	–
Cc1ccccc1-c1cc(-c2ccccc2O)on1	inactive	–
O=C(Nc1cccc(S(=O)(=O)N2CCCC2)c1)c1ccc2c(c1)OCO2	–	inconclusive: 25.1 µM [fluorescent, single point]
O=C(CN1C(=O)C2(OCCO2)c2ccccc21)c1ccc(Br)cc1	inconclusive: -6.79%	–
COc1ccc(NC(=O)c2cc3ccccc3o2)c(OC)c1	inconclusive: 8.32% [at 46 µM]	–
Brc1ccc(N/N=C(/N=Nc2nn[nH]n2)c2ccccc2)cc1	inconclusive: -42.2% [at 46 µM]	–
COC(=O)c1cccc(Cn2c(Cl)c(/C=N/NC(=O)c3ccccc3Cl)sc2=O)c1	–	inconclusive: 5.62 µM [cytotoxic, single point]
COc1ccc(Cl)cc1NC(=S)NCCN1CCOCC1	inconclusive: -8.22% [at 46 µM]	–
C=CCNC(=O)c1ccccc1NC(=O)c1ccc(Cl)c(S(=O)(=O)Nc2ccccc2)c1	inactive	–
CCC(=O)Nc1ccc2nc(SCCOc3ccc(C)cc3OC)sc2c1	inconclusive: 1.86% [at 46 µM]	–
COc1ccc(CNC(=O)c2cnc(N(C)C)nc2)cc1	inactive	–
CCN(CC)CCNC(=O)CN1N=C(c2ccc(OC)cc2)CCC1=O	inconclusive: 1.63% [at 46 µM]	–
COc1ccc(CC(=O)NNC(=O)c2ccc(NC(C)=O)cc2)cc1	inconclusive: 1.42% [at 46 µM]	–
COCCNC(=O)CN1C(=O)c2cccnc2Sc2ccccc21	inactive	–
CC1CCC(NC(=O)c2ccc(CS(=O)(=O)c3ccc(Cl)cc3)o2)CC1 (stereo not given)	inconclusive: -1.57% [at 46 µM]	–

Structure (SMILES)	ratio change, negative = inhibition	Potency
Cc1cccc(CNc2cc(-c3ccccc3Cl)ncn2)c1	inconclusive: -16.1%	–
O=C(Nc1ccc2nccnc2c1)c1ccco1	inconclusive: 9.95% [at 46 µM]	–
Cc1ccc2c(c1)nnn2C1CCN(S(=O)(=O)c2ccc(C(=O)N(C)C)cc2)CC1	–	inconclusive: 22.4 µM [falling, single point]
O=C(COc1ccc(F)cc1)Nc1nnc(S(=O)(=O)N2CCCC2)s1	inactive	–
NCCCCCC(=O)O	inconclusive: 5.62%	inconclusive: 1.26 µM [inhibitor, single point]
Cc1cc(C)c2c(NC(=O)C3CC3)nn(C)c2n1	inactive	–
CC(=O)c1cccc(NC(=S)NC(=O)c2ccccc2)c1	inactive	–
C=CCNC(=O)c1onc(CSc2cc(C)ccc2C)c1C(=O)O	–	inconclusive: 15.8 µM [inhibitor, single point]
O=C(NCc1ccccc1)c1cccc(COc2ccccc2Cl)c1	inconclusive: -3.34%	–
O=C(NCc1ccccc1F)c1sc2ncccc2c1-n1cccc1	inactive	–
CCN(CC)c1ccc(NC(=O)CN2CCN(c3ccccc3F)CC2)cc1	inactive	–
Cc1ccc(S(=O)(=O)NC2CCCc3ccccc32)cc1C (stereo not given)	inactive	–
COc1ccc(NC(=O)N2CCC(Cc3ccccc3)CC2)cc1	inconclusive: -23% [at 46 µM]	–
Clc1ccc(OCc2nnc3n2N=C(c2ccc4c(c2)OCCO4)CS3)c(Cl)c1	inconclusive: -28.5%	–
Cn1cc(-c2nc3cnc(N4CCNCC4)nc3n(C3CC3)c2=O)c2ccccc21	–	inconclusive: 14.1 µM [cytotoxic, single point]
O=[N+]([O-])c1ccc(NNC(=S)Nc2ccccc2)cc1	–	inconclusive: 35.5 µM [falling, single point]
c1csc(-c2nn3c(Cn4cnc5ccccc54)nnc3s2)c1	inactive	–
Cc1cc(C)cc(-n2cnc3cc(C(=O)NC4CCCCCC4)ccc32)c1	inactive	–
Cn1cccc1Cc1nnc(SCC(=O)NC2CCCCC2)n1-c1ccc(F)cc1	inactive	–
CCCOc1c(Cl)cc(C(=O)NC)cc1OC	inconclusive: 15.1% [at 46 µM]	–
N/C(=N\OC(=O)CC1CCCCC1)c1ccncc1	inconclusive: -12.2% [at 46 µM]	–
